# In publication PMC4493003:
# Sequences of proteins named here, by UniProt entry; tags and fusion partners are left off. A change or cut given only in a name is not applied to a line headed by its entry. A line that says so, or that is headed by a name, gives the form on record, which may keep a tag or linker. Residues count along the entry.
# UniProt P06332: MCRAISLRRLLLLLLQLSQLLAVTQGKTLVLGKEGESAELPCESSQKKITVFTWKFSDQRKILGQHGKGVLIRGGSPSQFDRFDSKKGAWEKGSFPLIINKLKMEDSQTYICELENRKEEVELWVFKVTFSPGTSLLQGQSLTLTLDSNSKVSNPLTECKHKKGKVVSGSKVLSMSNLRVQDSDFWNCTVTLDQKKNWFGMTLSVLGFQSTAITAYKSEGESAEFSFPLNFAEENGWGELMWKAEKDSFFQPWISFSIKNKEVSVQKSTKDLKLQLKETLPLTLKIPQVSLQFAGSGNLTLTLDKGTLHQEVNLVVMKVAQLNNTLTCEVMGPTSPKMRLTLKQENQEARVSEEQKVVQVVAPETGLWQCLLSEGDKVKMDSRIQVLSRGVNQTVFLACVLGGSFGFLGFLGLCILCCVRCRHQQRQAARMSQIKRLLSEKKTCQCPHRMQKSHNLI
# CD4T^TMD (G403V/G406L) mutant of C-terminally truncated CD4 (amino acids 1-421), fused to mEGFP or mCherry (P06332, form named): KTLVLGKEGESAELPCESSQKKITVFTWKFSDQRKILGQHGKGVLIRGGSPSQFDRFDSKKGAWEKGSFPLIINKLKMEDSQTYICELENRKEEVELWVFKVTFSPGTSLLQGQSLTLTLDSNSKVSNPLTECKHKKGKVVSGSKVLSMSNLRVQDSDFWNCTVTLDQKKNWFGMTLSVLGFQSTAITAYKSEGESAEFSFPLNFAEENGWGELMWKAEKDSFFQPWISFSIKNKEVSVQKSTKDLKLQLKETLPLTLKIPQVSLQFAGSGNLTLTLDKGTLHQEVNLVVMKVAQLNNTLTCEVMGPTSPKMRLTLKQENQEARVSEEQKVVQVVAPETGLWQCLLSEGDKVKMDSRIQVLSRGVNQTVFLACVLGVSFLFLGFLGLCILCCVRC
# UniProt P31041, residues 20-179: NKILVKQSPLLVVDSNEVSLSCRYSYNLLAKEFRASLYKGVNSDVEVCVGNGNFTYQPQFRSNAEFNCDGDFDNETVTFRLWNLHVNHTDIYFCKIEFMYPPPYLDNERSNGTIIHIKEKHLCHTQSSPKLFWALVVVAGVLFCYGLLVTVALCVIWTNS
# No constants are given. Whether binding was seen depends on the method and setting. Binding seen in cells or lysates may run through a third protein. Some results given as binding are weak or reduced against the parent protein; the word gives no strength.
# Columns and labels:
# [1] = target: C-terminally truncated CD4, CD4T (amino acids 1-421), fused to mEGFP or mCherry (UniProt P06332); assay: FRET or BRET; donor (mEGFP) recovery after photoablation of the acceptor (mCherry), TIRFM of live 58α-β- hybridoma cells adhered to glass coverslips, TCR and CD4 not engaged (steady-state); 37°C, 5% CO2
# [2] = target: C-terminally truncated CD4, CD4T (amino acids 1-421), fused to mEGFP or mCherry (UniProt P06332); assay: FRET or BRET; donor (mEGFP) recovery after photoablation of the acceptor (mCherry), TIRFM of live 58α-β- hybridoma cells on mobile lipid bilayers containing agonist pMHC (MCC-E^k) and ICAM-1 (TCR engaged); 37°C, 5% CO2
# [3] = target: C-terminally truncated CD28, CD28T (amino acids 1-179), fused to mEGFP or mCherry (UniProt P31041); assay: FRET or BRET; donor (mEGFP) recovery after photoablation of the acceptor (mCherry), TIRFM of live 58α-β- hybridoma cells adhered to glass coverslips, TCR and CD4 not engaged (steady-state); 37°C, 5% CO2
# [4] = target: C-terminally truncated CD28, CD28T (amino acids 1-179), fused to mEGFP or mCherry (UniProt P31041); assay: FRET or BRET; donor (mEGFP) recovery after photoablation of the acceptor (mCherry), TIRFM of live 58α-β- hybridoma cells on mobile lipid bilayers containing agonist pMHC (MCC-E^k) and ICAM-1 (TCR engaged); 37°C, 5% CO2
# [5] = target: CD4T^TMD (G403V/G406L) mutant of C-terminally truncated CD4 (amino acids 1-421), fused to mEGFP or mCherry (UniProt P06332); assay: FRET or BRET; donor (mEGFP) recovery after photoablation of the acceptor (mCherry), TIRFM of live 58α-β- hybridoma cells adhered to glass coverslips, TCR and CD4 not engaged (steady-state); 37°C, 5% CO2
# [6] = target: CD4T^TMD (G403V/G406L) mutant of C-terminally truncated CD4 (amino acids 1-421), fused to mEGFP or mCherry (UniProt P06332); assay: FRET or BRET; donor (mEGFP) recovery after photoablation of the acceptor (mCherry), TIRFM of live 58α-β- hybridoma cells on mobile lipid bilayers containing agonist pMHC (MCC-E^k) and ICAM-1 (TCR engaged); 37°C, 5% CO2
# [7] = target: wild type CD4 (CD4WT) fused to mEGFP or mCherry (UniProt P06332); assay: FRET or BRET; donor (mEGFP) recovery after photoablation of the acceptor (mCherry), TIRFM of live 58α-β- hybridoma cells adhered to glass coverslips, TCR and CD4 not engaged (steady-state); 37°C, 5% CO2
# [8] = target: wild type CD4 (CD4WT) fused to mEGFP or mCherry (UniProt P06332); assay: FRET or BRET; donor (mEGFP) recovery after photoablation of the acceptor (mCherry), TIRFM of live 58α-β- hybridoma cells on mobile lipid bilayers containing agonist pMHC (MCC-E^k) and ICAM-1 (TCR engaged); 37°C, 5% CO2
substance,measurement,setting,value
"C-terminally truncated CD4, CD4T (amino acids 1-421), fused to mEGFP or mCherry (from UniProt P06332 27-421) (receptor)",binding,[1],binds weakly
same,binding,[2],binds weakly
"C-terminally truncated CD28, CD28T (amino acids 1-179), fused to mEGFP or mCherry (from UniProt P31041 20-179) (receptor)",binding,[3],binds
same,binding,[4],binds
"CD4T^TMD (G403V/G406L) mutant of C-terminally truncated CD4 (amino acids 1-421), fused to mEGFP or mCherry (from UniProt P06332 27-421) (receptor)",binding,[5],binds weakly
same,binding,[6],binds weakly
wild type CD4 (CD4WT) fused to mEGFP or mCherry (from UniProt P06332 27-457) (receptor),binding,[7],binds weakly
same,binding,[8],binds weakly
